# Experimental data from the supplement of paper PMC10403144.
# The list shows a part of the results.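 Rule for the calls: active = mitochondrial OCR inhibition above 30% at 1 uM; inactive = 30% or less.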 Most values come without repeats; read them as rough.
# System: Toxoplasma gondii RH tachyzoites
# Experiment: inhibition of mitochondrial O2 consumption rate (% inhibition (relative to pre-injection OCR and atovaquone/antimycin A control)); higher = stronger ETC inhibition
# Details: 1 µM; injection port (sequential injection order): A
row,Compound,inhibition of mitochondrial O2 consumption rate
1,c1ccc(Oc2ccc(-c3cc(C4CCOCC4)[nH]n3)cc2)cc1,inactive: 4.42
2,COc1cc(-c2cc(-c3ccc(S(C)(=O)=O)cc3)cnc2N)ccc1O,inactive: -5.62
3,O=C(NC1CC1)c1ccc(CSCc2ccccc2Cl)o1,inactive: -6.85
4,CCCCc1ccc(NC(=O)Nc2ccc(O[C@H]3CCCC[C@@H]3N(C)c3ccccc3)c(F)c2)cc1,inactive: 1.07
5,Cc1cccnc1NC(=O)c1cccc(OCc2c(C)noc2C)c1,inactive: -1.51
6,COc1ccc(-c2cncc3ccc(C(=O)NCCCn4ccnc4)nc23)cc1,inactive: -8.3
7,CS(=O)(=O)Cc1nc2ccccc2oc1=O,inactive: -3.01
8,CC(C)(C)CN1C(=O)C(c2ccccc2)(c2ccccc2)N=C1N,inactive: -7.98
9,CCOC(=O)NC(=O)c1ccsc1NC(=O)c1nc2ccccc2s1,inactive: -17.9
10,Cc1nn2c(O)c3c(nc2c1-c1ccc(F)cc1)CCCC3,inactive: 3.41
11,CNC(=O)C1Cc2ccccc2N1C(=O)Cc1ccc(F)cc1 (stereo not drawn),inactive: -1.12
12,Clc1ccc(CCNc2cc(-c3ccccc3)nc3ncnn23)cc1,inactive: 5.23
13,O=C(NCc1ccco1)N1CCN(Cc2ccc(Cl)s2)CC1,inactive: -0.861
14,Nc1nccc2ccc(-c3ccc4nccn4c3)cc12,inactive: -5.31
15,CN1CCN(c2cc(-c3ccc(F)cc3)nc(-c3ccncc3)n2)CC1,inactive: -0.0615
16,COc1ccc(OC(C)C(=O)Nc2ccc(Cl)cc2C)cc1 (stereo not drawn),inactive: 5.64
17,CC(C)(C)OC(=O)N1CCC(Cn2nc(-c3cnc4ccccc4c3)c3c(N)ncnc32)CC1,inactive: -4.94
18,Cc1cc(Cl)c(S(=O)(=O)N2CCCC2)cc1OCC(=O)NC1CCCCC1,inactive: -0.416
19,NS(=O)(=O)c1cncc(-c2ccc3nccc(-c4cn[nH]c4)c3n2)c1,inactive: -3.04
20,CCn1cnc2c(Nc3cc(F)cc(F)c3)nc(C#N)nc21,inactive: -3.35

# Part of the list above, reformatted.
row	Compound	inhibition of mitochondrial O2 consumption rate
4	CCCCc1ccc(NC(=O)Nc2ccc(O[C@H]3CCCC[C@@H]3N(C)c3ccccc3)c(F)c2)cc1	inactive: 1.07
5	Cc1cccnc1NC(=O)c1cccc(OCc2c(C)noc2C)c1	inactive: -1.51
6	COc1ccc(-c2cncc3ccc(C(=O)NCCCn4ccnc4)nc23)cc1	inactive: -8.3
7	CS(=O)(=O)Cc1nc2ccccc2oc1=O	inactive: -3.01
8	CC(C)(C)CN1C(=O)C(c2ccccc2)(c2ccccc2)N=C1N	inactive: -7.98
9	CCOC(=O)NC(=O)c1ccsc1NC(=O)c1nc2ccccc2s1	inactive: -17.9
10	Cc1nn2c(O)c3c(nc2c1-c1ccc(F)cc1)CCCC3	inactive: 3.41
11	CNC(=O)C1Cc2ccccc2N1C(=O)Cc1ccc(F)cc1 (stereo not drawn)	inactive: -1.12
12	Clc1ccc(CCNc2cc(-c3ccccc3)nc3ncnn23)cc1	inactive: 5.23
13	O=C(NCc1ccco1)N1CCN(Cc2ccc(Cl)s2)CC1	inactive: -0.861

# Same assay, conditions: 1 µM; injection port (sequential injection order): B
row,Compound,inhibition of mitochondrial O2 consumption rate
1,CC1CC1C(=O)NC1CCN(CC2(c3ccccc3)CCCCC2)CC1 (stereo not drawn),inactive: 5.78
2,C[C@H](C(N)=O)N1CCCC[C@@H]1c1ccc(OCc2cccc(F)c2)cc1,inactive: -6.64
3,CCOc1ccc2cc(-c3nn(C(C)(C)C)c(N)c3C(N)=O)cnc2c1,active: 42.2
4,CCOc1ccc(-c2nc(CNCCc3ccc(F)cc3)cs2)cc1,inactive: -10.6
5,CC(=O)NC[C@@H]1CN(c2ccc(N3CCOCC3)c(F)c2)C(=O)O1,inactive: -8.17
6,Cc1ccc(S(=O)(=O)N2CCN(C(=O)c3cc(-c4ccccc4)[nH]n3)CC2)cc1,inactive: 0.13
7,CCS(=O)(=O)N(Cc1ccco1)Cc1cc2ccc(C)cc2nc1O,inactive: 3.98
8,COc1ccc(C2CC(c3cccs3)=NN2C(=O)c2ccco2)cc1OC (stereo not drawn),inactive: -20.3
9,COc1ccc(Cl)cc1NC(=O)CN(C)C(=O)c1cnn(-c2ccccc2)n1,inactive: -1.99

# Same assay, conditions: 1 µM; injection port (sequential injection order): C
row,Compound,inhibition of mitochondrial O2 consumption rate
1,O=C(c1ccc(F)cc1)N(CCNc1ccccc1)c1ccccc1,inactive: -10.1
2,N=C(N)Nc1ccc(-c2ccc(-c3ccc(NC(=N)N)cc3Cl)o2)c(Cl)c1,inactive: -4.55
3,O=C(Nc1cccc(Cl)c1)c1cnc(N2CCN(c3ccncc3)CC2)c(Cl)c1,inactive: -0.282
4,CC(C)(C)c1ccc(N[C@@H]2CCCC[C@H]2NC(=O)c2ccco2)cc1,inactive: -16.1
5,O=C(C1CCN(c2cc(-n3cccc3)ncn2)CC1)N1CCc2ccccc2C1,inactive: -9.4
6,CCCCOC(=O)Nc1cc2nc(C3CCCCC3)[nH]c2cc1N1CCCC1,inactive: -30.7
7,COc1ccc(Oc2ccc([C@@H](C)N(C)c3ncc4c(N)nc(N)nc4n3)cc2)cc1,inactive: -5.25
8,Cc1cccc(-c2nc(Nc3ccncn3)c3sccc3n2)n1,inactive: -5.03
9,FC(F)(F)c1cc(NCCc2ccccc2)nc(-c2ccccn2)n1,inactive: -13.1
